Measurements: PubChem BioAssay AID314 (DTP/NCI, 2004)
The list is a part of this screen's results and no random one: it is rich in T/C values a quarter to a half above the control, in often repeated tests (any T/C) and in doses without a T/C. Other doses and runs of a compound stand elsewhere. T/C gives the treated animals as a percentage of the vehicle group. Some doses have a count of surviving animals in place of a T/C: the source files T/C as zero there, which appears to mark a toxic dose or a test without result, not a measured value. Some survivor counts are full or nearly so, which does not show that the dose was tolerated: survival well below the control is almost never listed, so the zero probably covers shortened survival too. Counts of survivors are from the toxicity check (mostly the fifth day) where no day follows; animals may have died later. Schedule codes are those of the source, taken here to give the interval after Q, in days (D) or hours (H), and the number of doses after X. Some doses were run more than once; their values stand side by side, smallest first. For survival time, this PubChem deposit counts one and a half times the control or more as active, and values a quarter to a half above the control carry no call in these data; other NCI protocols may use other cut-offs. Marks such as (2×) say how often a value occurs here. Some T/C values are followed by the survivors on the day toxicity was checked, most often the fifth; without a count, all were alive then.

Test system: DBA/2 mice, P1534 leukemia ip, survival T/C
Test: NCI In Vivo Anticancer Drug Screen. Data for tumor model P1534 Leukemia (intraperitoneal) in DBA/2 mice
Conditions: T/C endpoint: mean survival time, schedule: Q01DX010 (ip), higher T/C = longer survival
Procedure: The antitumor activity of compounds was measured in mice bearing transplantable tumors. Survival or tumor size were measured and the results are expressed as the measurement made in the treated group (T) divided by the measurement made in the vehicle treated control group (C). The tumor model used in this assay is P1534 Leukemia (intraperitoneal) in DBA/2 mice

[1] = dose: 50.0 mg/kg/injection, vehicle: saline
[2] = dose: 100.0 mg/kg/injection, vehicle: saline
[3] = dose: 1.25 mg/kg/injection, vehicle: saline
[4] = dose: 2.5 mg/kg/injection, vehicle: saline
[5] = dose: 5.0 mg/kg/injection, vehicle: saline
[6] = dose: 10.0 mg/kg/injection, vehicle: saline
[7] = dose: 20.0 mg/kg/injection, vehicle: saline
[8] = dose: 4.0 mg/kg/injection, vehicle: saline
[9] = dose: 250.0 mg/kg/injection, vehicle: saline
[10] = dose: 7.5 mg/kg/injection, vehicle: saline
[11] = dose: 15.0 mg/kg/injection, vehicle: saline
[12] = dose: 200.0 mg/kg/injection, vehicle: saline
[13] = dose: 400.0 mg/kg/injection, vehicle: saline
[14] = dose: 6.0 mg/kg/injection, vehicle: saline
[15] = dose: 8.0 mg/kg/injection, vehicle: saline
[16] = dose: 40.0 mg/kg/injection, vehicle: saline
[17] = dose: 1.0 mg/kg/injection, vehicle: saline
[18] = dose: 2.0 mg/kg/injection, vehicle: saline
[19] = dose: 16.0 mg/kg/injection, vehicle: saline
[20] = dose: 32.0 mg/kg/injection, vehicle: saline
[21] = dose: 64.0 mg/kg/injection, vehicle: saline

Question: With `CS(=O)(=O)OCCC(=O)N1CCN(C(=O)CCOS(C)(=O)=O)CC1` as the compound, how does the survivor count (dose: 12.5 mg/kg/injection, vehicle: saline) read?
Answer: The survivor count was 6 of 6.

Question: And the T/C (dose: 25.0 mg/kg/injection, vehicle: saline)?
Answer: The T/C was 138 % of control [5 of 6 alive].

Question: What about the survivor count [1] of the same compound?
Answer: The survivor count was 6 of 6.

Question: What about the survivor count [2] of the same compound?
Answer: Its survivor count is 6 of 6.

Question: With `Oc1cc(CN(CCCl)CCCl)c(O)cc1CN(CCCl)CCCl` as the compound, how does the T/C [3] read?
Answer: The T/C was 128 % of control (2×).

Question: What about the survivor count [4] of the same compound?
Answer: The survivor count was 6 of 6.

Question: What about the survivor count [5] of the same compound?
Answer: The survivor count was 6 of 6.

Question: And the survivor count [6]?
Answer: Its survivor count is 6 of 6.

Question: Which T/C [4] does the source give for `N=C(N)SCc1c2ccccc2c(CSC(=N)N)c2ccccc12` here?
Answer: The T/C was 130 % of control.

Question: And the survivor count [7]?
Answer: Its survivor count is 5 of 6.

Question: `CCCCn1cnc2c(=S)nc[nH]c21` was tested. Which survivor count (dose: 256.0 mg/kg/injection, vehicle: saline) did it give?
Answer: Its survivor count is 6 of 6.

Question: Which T/C [8] does the source give for `N=[N+]=CC(=O)OCC(N)C(=O)O` (stereo unspecified) here?
Answer: The T/C was 129 % of control.

Question: For `Cn1c(O)c(N=NC(N)=S)c2ccccc21`, which survivor count [9] is on record?
Answer: The survivor count was 5 of 6.

Question: What does the source list for `O=c1[nH]c(=O)n(C2CC(O)C(CO)O2)cc1I` (stereo unspecified)?
Answer: T/C [9]: 125 % of control; survivor count (dose: 1000.0 mg/kg/injection, vehicle: saline): 6 of 6; survivor count (dose: 2000.0 mg/kg/injection, vehicle: saline): 4 of 6

Question: With `Nc1nncs1` as the compound, how does the T/C (dose: 1.88 mg/kg/injection, vehicle: saline) read?
Answer: The T/C was 100 (2×), 103, 107 % of control.

Question: What about the T/C (dose: 3.75 mg/kg/injection, vehicle: saline) of the same compound?
Answer: The T/C was 100 (3×) and 103 % of control.

Question: What about the T/C [10] of the same compound?
Answer: Its T/C is 100, 107 (2×), 111 % of control [5 of 6 alive].

Question: What about the survivor count [11] of the same compound?
Answer: The survivor count was 6 of 6.

Question: Which results are given for `O=C1C=CC2(CCC23C=CC(=O)O3)O1` (stereo unspecified)?
Answer: survivor count [2]: 3 of 6; survivor count [12]: 0 of 6; survivor count [13]: 0 of 6

Question: What does the source list for `COc1cc([C@@H]2c3cc4c(c(O)c3C[C@H]3COC(=O)[C@@H]32)OCO4)cc(OC)c1OC`?
Answer: survivor count (dose: 0.31 mg/kg/injection, vehicle: saline): 5 of 6; survivor count (dose: 0.63 mg/kg/injection, vehicle: saline): 5 of 6; survivor count [3]: 6 of 6; survivor count [4]: 6 of 6; survivor count (dose: 313.0 micrograms/kg/injection, vehicle: saline): 5 of 6

Question: What does the source list for `C=CC(CN1CC1)OC(C)=O` (stereo unspecified)?
Answer: survivor count [14]: 3 of 6; survivor count [15]: 2 of 6; survivor count (dose: 12.0 mg/kg/injection, vehicle: saline): 0 of 6; survivor count (dose: 18.0 mg/kg/injection, vehicle: saline): 0 of 6

Question: Which survivor count [1] does the source give for `O=C1C(NC(=O)C2CCCCC2)=C(N2CC2)C(=O)C(NC(=O)C2CCCCC2)=C1N1CC1` here?
Answer: Its survivor count is 6 of 6.

Question: What about the survivor count [2] of the same compound?
Answer: Its survivor count is 6 of 6.

Question: And the survivor count [12]?
Answer: The survivor count was 6 of 6.

Question: What about the survivor count [13] of the same compound?
Answer: Its survivor count is 0 of 6.

Question: Which results are given for `Cn1cnc([N+](=O)[O-])c1Sc1nc(N)nc2nc[nH]c12`?
Answer: survivor count [5]: 6 of 6; survivor count [6]: 6 of 6

Question: What does the source list for `C=C(C(=O)OC1CC2CCC(C1)N2C)c1ccccc1` (stereo unspecified)?
Answer: survivor count [6]: 5 of 6; survivor count [7]: 0 of 6; survivor count [16]: 0 of 6

Question: Which survivor count (dose: 18.8 mg/kg/injection, vehicle: saline) does the source give for `CS(=O)(=O)OCCCl` here?
Answer: Its survivor count is 6 of 6.

Question: What about the survivor count (dose: 37.5 mg/kg/injection, vehicle: saline) of the same compound?
Answer: The survivor count was 6 of 6.

Question: And the survivor count (dose: 75.0 mg/kg/injection, vehicle: saline)?
Answer: The survivor count was 6 of 6.

Question: And the survivor count (dose: 150.0 mg/kg/injection, vehicle: saline)?
Answer: The survivor count was 3 of 6 and 4 of 6.

Question: For `Cc1cc(N(CCCl)CCCl)ccc1N=Nc1ccccc1C(=O)O`, which T/C [6] is on record?
Answer: The T/C was 134 % of control.

Question: And the survivor count [16]?
Answer: Its survivor count is 6 of 6.

Question: With `C1CCNC1` as the compound, how does the survivor count (dose: 0.78 mg/kg/injection, vehicle: saline) read?
Answer: Its survivor count is 6 of 6.

Question: Which results are given for `O=C(O)c1[nH]c(=O)[nH]c(=O)c1F`?
Answer: survivor count [4]: 6 of 6; survivor count [5]: 5 of 6; survivor count [6]: 6 of 6; survivor count [7]: 6 of 6; survivor count [16]: 6 of 6

Question: Which survivor count [8] does the source give for `NC(=O)N(CCCl)N=O` here?
Answer: Its survivor count is 5 of 6.

Question: For `Nc1nc(=S)c2ncn(C3OC(CO)C(O)C3O)c2[nH]1` (stereo unspecified), which survivor count [17] is on record?
Answer: The survivor count was 6 of 6.

Question: What about the survivor count [18] of the same compound?
Answer: Its survivor count is 6 of 6.

Question: And the survivor count [4]?
Answer: Its survivor count is 6 of 6.

Question: What about the survivor count [8] of the same compound?
Answer: The survivor count was 6 of 6.

Question: What about the survivor count [5] of the same compound?
Answer: Its survivor count is 5 of 6.

Question: And the survivor count [15]?
Answer: The survivor count was 6 of 6.

Question: What about the survivor count [6] of the same compound?
Answer: Its survivor count is 6 of 6.

Question: And the survivor count [19]?
Answer: The survivor count was 6 of 6.

Question: What about the survivor count [20] of the same compound?
Answer: Its survivor count is 6 of 6.

Question: What about the survivor count [21] of the same compound?
Answer: Its survivor count is 6 of 6.

Question: With `Nc1nc2n[nH]nc2c(=O)[nH]1` as the compound, how does the T/C (dose: 400.0 mg/kg/injection, vehicle: alkali diluted with saline) read?
Answer: Its T/C is 131 and 142 % of control.

Question: Which results are given for `NC(=O)c1ccc(N)nc1`?
Answer: survivor count (dose: 0.75 mg/kg/injection, vehicle: saline): 3 of 6; T/C (dose: 1.5 mg/kg/injection, vehicle: saline): 126 % of control; survivor count [14]: 5 of 6

Question: Which results are given for `S=P(N1CCOCC1)(N1CC1)N1CC1`?
Answer: T/C [5]: 110, 111, 114 % of control; survivor count [5]: 6 of 6; T/C [6]: 110 % of control; survivor count [6]: 5 of 6 and 6 of 6; survivor count [7]: 6 of 6; survivor count [16]: 6 of 6

Question: `N#Cc1cn(C2OC(CO)C(O)C2O)c2ncnc(N)c12` (stereo unspecified) was tested. Which survivor count (dose: 0.25 mg/kg/injection, vehicle: saline) did it give?
Answer: Its survivor count is 6 of 6.

Question: And the survivor count (dose: 0.5 mg/kg/injection, vehicle: saline)?
Answer: The survivor count was 6 of 6.

Question: What about the survivor count [17] of the same compound?
Answer: Its survivor count is 5 of 6.

Question: What about the survivor count [18] of the same compound?
Answer: Its survivor count is 0 of 6.

Question: How did the survivor count [12] turn out when `CN(C)/N=N/c1nc[nH]c1C(N)=O` was run?
Answer: The survivor count was 5 of 6.

Question: What does the source list for `CCNc1nncs1`?
Answer: survivor count (dose: 62.5 mg/kg/injection, vehicle: saline): 6 of 6; survivor count (dose: 125.0 mg/kg/injection, vehicle: saline): 5 of 6

Question: For `C[C@]12CC[C@H](OC3OC(CO)C(O)C(O)C3O)C[C@H]1CC[C@@H]1[C@@H]2CC[C@]2(C)[C@@H](C3=CCOC3=O)CC[C@]12O` (stereo partly specified), which survivor count [18] is on record?
Answer: The survivor count was 5 of 6.

Question: And the survivor count [8]?
Answer: The survivor count was 2 of 6.

Question: `CCn1cnc2c(=S)nc[nH]c21` was tested. Which T/C [15] did it give?
Answer: Its T/C is 92 and 100 % of control (3×).

Question: And the T/C [19]?
Answer: Its T/C is 100 (3×) and 103 % of control.

Question: What about the T/C [20] of the same compound?
Answer: The T/C was 92, 96, 100 [5 of 6 alive], 103 % of control.

Question: And the T/C [21]?
Answer: Its T/C is 100 (3×) and 103 % of control.

Question: `N#CCSc1ncnc2nc[nH]c12` was tested. Which survivor count [10] did it give?
Answer: Its survivor count is 6 of 6.

Question: And the survivor count [11]?
Answer: Its survivor count is 6 of 6.

Question: What about the survivor count (dose: 30.0 mg/kg/injection, vehicle: saline) of the same compound?
Answer: Its survivor count is 6 of 6.

Question: What does the source list for `N[C@@H](Cc1ccc(N(CCCl)CCCl)cc1)C(=O)O`?
Answer: survivor count (dose: 0.5 mg/kg/injection, vehicle: other): 6 of 6; survivor count (dose: 2.0 mg/kg/injection, vehicle: other): 5 of 6; T/C [18]: 130 % of control; survivor count (dose: 4.0 mg/kg/injection, vehicle: other): 3 of 6; survivor count [8]: 5 of 6 and 6 of 6

Question: `CN(N=O)C(=O)NC(C=O)C(O)C(O)C(O)CO` (stereo unspecified) was tested. Which T/C (dose: 60.0 mg/kg/injection, vehicle: saline) did it give?
Answer: Its T/C is 127 % of control.
